# PubChem BioAssay AID1224830 | NIAID, 2016
# Test: 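Genes whose knock-down alters the TNF-alpha reporter response to LPS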 (primary screen)
# System: human THP-1 monocytic leukaemia cells, TNF dual-luciferase reporter clone, PMA-differentiated to macrophage-like cells
# Knock-down reagent: siRNA pool against human genes, 50 nM
# Time to read-out: LPS for 4 h, given about 3 days after siRNA transfection
# Conditions: bacterial LPS (TLR4 ligand), 10 ng/ml
# Read-out: 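TNF firefly reporter luminescence divided by renilla, normalised to the plate median, then turned into a robust z-score for each replicate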
# Direction: TNF reporter robust z-score: higher = stronger TNF reporter response to LPS
# Call rule: 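a well is active when its z-score exceeds 2.8 or falls below -1.5; control wells carry no call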
# In all, the deposit lists about 18,000 reagents; this is an unselected part. About 2,900 of all reagents (16%) count as active. 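Calls are made per well; low scores hint the gene aids the LPS response, high scores that it dampens it.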 A number with no mark means an inactive call. Repeated entries: four replicate wells of each siRNA pool.
gene,TNF reporter robust z-score
SLCO1B1,-0.07
SLCO1B1,0.17
SLCO1B1,-0.47
SLCO1B1,0.21
HECTD2,0.34
HECTD2,1.42
HECTD2,-0.02
HECTD2,-0.09
UBA1,2.08
UBA1,1.02
UBA1,1.29
UBA1,0.97
AQP10,0.05
AQP10,0.78
AQP10,0.45
AQP10,0.85
SPDYA,-0.18
SPDYA,0.06
SPDYA,0.19
SPDYA,0.49
KCNH2,0.38
KCNH2,-0.53
KCNH2,-1.59 (active)
KCNH2,-1.31

Entries listed so far whose target name starts with U or u:
gene,TNF reporter robust z-score
UBA1,2.08
UBA1,1.02
UBA1,1.29
UBA1,0.97

Further results follow:
gene,TNF reporter robust z-score
SCYL2,0.32
SCYL2,0.59
SCYL2,0.76
SCYL2,1.36
DPYSL4,0.3
DPYSL4,0.42
DPYSL4,-0.55
DPYSL4,-0.11
MTFMT,-0.2
MTFMT,-0.69
MTFMT,-0.11
MTFMT,-0.26
NOS3,-0.16
NOS3,-0.29
NOS3,-0.28
NOS3,0.02
PALM,0.5
PALM,0.7
PALM,0.76
PALM,0.82
OR1D4,0.66
OR1D4,-0.01
OR1D4,0.46
OR1D4,1.05
